In patent US20140199316A1 (published 2014):
These are yes or no findings as the source states them, for the method shown. Some binding calls cover weakened binding; strength is not graded here. Where a sequence is shown, tags or fusion partners need not be part of it.

Sequences of proteins named here, by UniProt entry; tags and fusion partners are left off. A change or cut given only in a name is not applied to a line headed by its entry. A line that says so, or that is headed by a name, gives the form on record, which may keep a tag or linker.
Hematopoietic Cell E-/L-selectin Ligand (HCELL), glycoform of CD44, from ML lysates (P16070, form named): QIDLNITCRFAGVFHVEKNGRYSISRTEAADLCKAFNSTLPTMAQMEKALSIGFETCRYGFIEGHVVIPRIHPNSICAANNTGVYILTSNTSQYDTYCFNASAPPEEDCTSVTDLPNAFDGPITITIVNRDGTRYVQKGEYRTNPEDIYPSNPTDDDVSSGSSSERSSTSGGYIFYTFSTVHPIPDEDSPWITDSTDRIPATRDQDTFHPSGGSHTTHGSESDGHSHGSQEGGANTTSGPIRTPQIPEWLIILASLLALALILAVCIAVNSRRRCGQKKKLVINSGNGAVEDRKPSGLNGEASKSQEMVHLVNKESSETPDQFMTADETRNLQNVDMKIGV

Target: Hematopoietic Cell E-/L-selectin Ligand (HCELL), glycoform of CD44, from ML lysates (human) (UniProt P16070)
Assay: western blot of ML lysates and WGA-purified glycoproteins, reducing SDS-PAGE

binding: binds
B1: recombinant mouse E-selectin-human Fc chimera (Fc fusion, UniProt Q00690 22-557, looked up, not shown: a dimerising Fc or GST)
chain: WYYNASSELMTYDEASAYCQRDYTHLVAIQNKEEINYLNSNLKHSPSYYWIGIRKVNNVWIWVGTGKPLTEEAQNWAPGEPNNKQRNEDCVEIYIQRTKDSGMWNDERCNKKKLALCYTASCTNASCSGHGECIETINSYTCKCHPGFLGPNCEQAVTCKPQEHPDYGSLNCSHPFGPFSYNSSCSFGCKRGYLPSSMETTVRCTSSGEWSAPAPACHVVECEALTHPAHGIRKCSSNPGSYPWNTTCTFDCVEGYRRVGAQNLQCTSSGIWDNETPSCKAVTCDAIPQPQNGFVSCSHSTAGELAFKSSCNFTCEQSFTLQGPAQVECSAQGQWTPQIPVCKAVQCEALSAPQQGNMKCLPSASGPFQNGSSCEFSCEEGFELKGSRRLQCGPRGEWDSKKPTCSAVKCDDVPRPQNGVMECAHATTGEFTYKSSCAFQCNEGFSLHGSAQLECTSQGKWTQEVPSCQVVQCPSLDVPGKMNMSCSGTAVFGTVCEFTCPDDWTLNGSAVLTCGATGRWSGMPPTCEAPVSPTRP
